Test results reported in PMC5558016.
Residue numbers refer to the chain shown, from its start. No constants are given. Whether binding was seen depends on the method and setting. For some of these results: Binding seen in cells or lysates may run through a third protein. Some binding calls cover weakened binding; strength is not graded here. For some of these results: Sequences can lack the tags named with a protein. Each block holds one binder with its values, some of them ahead of it.

Columns and labels:
[1] = molecular target: T1, GST-RTTN-N (1–889) recombinant protein (human) (UniProt Q86VV8); assay: pull-down; GST-RTTN-N immobilised on glutathione-agarose beads, incubated with lysates of HEK293T cells transfected with Flag-STIL constructs, 4 °C for 3 h, washed with NP-40 lysis buffer, western blot; only the target purified
T1 sequence: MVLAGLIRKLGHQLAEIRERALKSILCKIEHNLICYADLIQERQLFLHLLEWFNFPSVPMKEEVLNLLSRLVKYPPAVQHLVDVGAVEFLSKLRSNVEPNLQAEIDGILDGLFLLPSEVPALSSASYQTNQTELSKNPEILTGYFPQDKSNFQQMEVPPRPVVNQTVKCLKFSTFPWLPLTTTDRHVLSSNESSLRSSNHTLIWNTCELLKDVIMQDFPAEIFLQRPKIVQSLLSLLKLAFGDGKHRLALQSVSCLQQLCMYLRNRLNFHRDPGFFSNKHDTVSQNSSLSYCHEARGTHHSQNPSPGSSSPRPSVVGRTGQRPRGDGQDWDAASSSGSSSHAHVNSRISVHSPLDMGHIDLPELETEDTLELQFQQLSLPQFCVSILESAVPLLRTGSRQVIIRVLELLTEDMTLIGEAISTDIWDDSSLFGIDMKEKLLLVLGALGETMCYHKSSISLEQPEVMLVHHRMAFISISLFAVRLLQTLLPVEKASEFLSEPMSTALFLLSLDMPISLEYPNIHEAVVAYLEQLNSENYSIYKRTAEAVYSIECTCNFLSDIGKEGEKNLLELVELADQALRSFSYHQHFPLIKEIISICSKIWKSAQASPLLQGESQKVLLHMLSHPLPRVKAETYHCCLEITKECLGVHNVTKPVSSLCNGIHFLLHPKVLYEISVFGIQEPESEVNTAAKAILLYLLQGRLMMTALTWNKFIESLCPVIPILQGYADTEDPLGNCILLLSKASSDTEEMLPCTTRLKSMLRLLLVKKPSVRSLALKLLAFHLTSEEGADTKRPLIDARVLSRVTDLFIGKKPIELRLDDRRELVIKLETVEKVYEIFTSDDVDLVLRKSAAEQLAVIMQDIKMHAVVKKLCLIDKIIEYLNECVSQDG

[2] = molecular target: T2, RTTN-N-A578P, yeast two-hybrid bait (human) (UniProt Q86VV8); assay: two-hybrid; Matchmaker Gold; RTTN-N bait, STIL prey; liquid β-galactosidase assay with ONPG, diploids grown in DDO medium; relative to STIL (1–628) with RTTN-N (WT) set to 100%
T2 sequence: T1 sequence with A578P

[3] = molecular target: T3, RTTN-N (aa 1–889), yeast two-hybrid bait, wild type (human) (UniProt Q86VV8); assay: as above
T3 sequence: T1 sequence

[4] = molecular target: T3, RTTN-N (aa 1–889), yeast two-hybrid bait, wild type (human); assay: two-hybrid; Matchmaker Gold; RTTN in pGBKT7 as bait, STIL in pGADT7 as prey; growth of mating colonies on QDO plates at 30 °C

B1: Flag-tagged STIL (aa 620–1288) (domain or fragment, UniProt Q15468-2 620-1288)
chain: WQGANTVGSIQDVQSEALQKHSLFHPSGCPALYCNAFCSSSSPIALRPQGDMGSCSPHSNIEPSPVARPPSHMDLCNPQPCTVCMHTPKTESDNGMMGLSPDAYRFLTEQDRQLRLLQAQIQRLLEAQSLMPCSPKTTAVEDTVQAGRQMELVSVEAQSSPGLHMRKGVSIAVSTGASLFWNAAGEDQEPDSQMKQDDTKISSEDMNFSVDINNEVTSLPGSASSLKAVDIPSFEESNIAVEEEFNQPLSVSNSSSLVVRKEPDVPVFFPSGQLAESVSMCLQTGPTGGASNNSETSEEPKIEHVMQPLLHQPSDNQKIYQDLLGQVNHLLNSSSKETEQPSTKAVIISHECTRTQNVYHTKKKTHHSRLVDKDCVLNATLKQLRSLGVKIDSPTKVKKNAHNVDHASVLACISPEAVISGLNCMSFANVGMSGLSPNGVDLSMEANAIALKYLNENQLSQLSVTRSNQNNCDPFSLLHINTDRSTVGLSLISPNNMSFATKKYMKRYGLLQSSDNSEDEEEPPDNADSKSEYLLNQNLRSIPEQLGGQKEPSKNDHEIINCSNCESVGTNADTPVLRNITNEVLQTKAKQQLTEKPAFLVKNLKPSPAVNLRTGKAEFTQHPEKENEGDITIFPESLQPSETLKQMNSMNSVGTFLDVKRLRQLPKLF
binding [1]: no binding

B3: Flag-tagged STIL (aa 1–628) (domain or fragment, UniProt Q15468-2 1-628)
chain: MEPIYPFARPQMNTRFPSSRMVPFHFPPSKCALWNPTPTGDFIYLHLSYYRNPKLVVTEKTIRLAYRHAKQNKKNSSCFLLGSLTADEDEEGVTLTVDRFDPGREVPECLEITPTASLPGDFLIPCKVHTQELCSREMIVHSVDDFSSALKALQCHICSKDSLDCGKLLSLRVHITSRESLDSVEFDLHWAAVTLANNFKCTPVKPIPIIPTALARNLSSNLNISQVQGTYKYGYLTMDETRKLLLLLESDPKVYSLPLVGIWLSGITHIYSPQVWACCLRYIFNSSVQERVFSESGNFIIVLYSMTHKEPEFYECFPCDGKIPDFRFQLLTSKETLHLFKNVEPPDKNPIRCELSAESQNAETEFFSKASKNFSIKRSSQKLSSGKMPIHDHDSGVEDEDFSPRPIPSPHPVSQKISKIQPSVPELSLVLDGNFIESNPLPTPLEMVNNENPPLINHLEHLKPLQPQLYDEKHSPEVEAGEPSLRGIPNQLNQDKPALLRHCKVRQPPAYKKGNPHTRNSIKPSSHNGPSHDIFEKLQTVSAGNVQNEEYPIRPSTLNSRQSSLAPQSQPHDFVFSPHNSGRPMELQIPTPPLPSYCSTNVCRCCQHHSHIQYSPLNSWQGANTVGS
binding [1]: binds

Other lines, results leading:

binding [1]: no binding
B2: Flag-tagged STIL (aa 420–781) (domain or fragment, UniProt Q15468-2 420-781)
chain: IQPSVPELSLVLDGNFIESNPLPTPLEMVNNENPPLINHLEHLKPLQPQLYDEKHSPEVEAGEPSLRGIPNQLNQDKPALLRHCKVRQPPAYKKGNPHTRNSIKPSSHNGPSHDIFEKLQTVSAGNVQNEEYPIRPSTLNSRQSSLAPQSQPHDFVFSPHNSGRPMELQIPTPPLPSYCSTNVCRCCQHHSHIQYSPLNSWQGANTVGSIQDVQSEALQKHSLFHPSGCPALYCNAFCSSSSPIALRPQGDMGSCSPHSNIEPSPVARPPSHMDLCNPQPCTVCMHTPKTESDNGMMGLSPDAYRFLTEQDRQLRLLQAQIQRLLEAQSLMPCSPKTTAVEDTVQAGRQMELVSVEAQSSPG

binding [2]: binds weakly
binding [3]: binds
binding [4]: binds
B4: truncated STIL (1–628), yeast two-hybrid prey (domain or fragment, UniProt Q15468-2 1-628)
chain: B3 chain

binding [1]: binds
B5: Flag-tagged STIL (aa 1–781) (domain or fragment, UniProt Q15468-2 1-781)
chain: MEPIYPFARPQMNTRFPSSRMVPFHFPPSKCALWNPTPTGDFIYLHLSYYRNPKLVVTEKTIRLAYRHAKQNKKNSSCFLLGSLTADEDEEGVTLTVDRFDPGREVPECLEITPTASLPGDFLIPCKVHTQELCSREMIVHSVDDFSSALKALQCHICSKDSLDCGKLLSLRVHITSRESLDSVEFDLHWAAVTLANNFKCTPVKPIPIIPTALARNLSSNLNISQVQGTYKYGYLTMDETRKLLLLLESDPKVYSLPLVGIWLSGITHIYSPQVWACCLRYIFNSSVQERVFSESGNFIIVLYSMTHKEPEFYECFPCDGKIPDFRFQLLTSKETLHLFKNVEPPDKNPIRCELSAESQNAETEFFSKASKNFSIKRSSQKLSSGKMPIHDHDSGVEDEDFSPRPIPSPHPVSQKISKIQPSVPELSLVLDGNFIESNPLPTPLEMVNNENPPLINHLEHLKPLQPQLYDEKHSPEVEAGEPSLRGIPNQLNQDKPALLRHCKVRQPPAYKKGNPHTRNSIKPSSHNGPSHDIFEKLQTVSAGNVQNEEYPIRPSTLNSRQSSLAPQSQPHDFVFSPHNSGRPMELQIPTPPLPSYCSTNVCRCCQHHSHIQYSPLNSWQGANTVGSIQDVQSEALQKHSLFHPSGCPALYCNAFCSSSSPIALRPQGDMGSCSPHSNIEPSPVARPPSHMDLCNPQPCTVCMHTPKTESDNGMMGLSPDAYRFLTEQDRQLRLLQAQIQRLLEAQSLMPCSPKTTAVEDTVQAGRQMELVSVEAQSSPG
